By UniProt entry, the sequences of proteins in these tests, tags left out.
UniProt P53350, whole entry, looked up: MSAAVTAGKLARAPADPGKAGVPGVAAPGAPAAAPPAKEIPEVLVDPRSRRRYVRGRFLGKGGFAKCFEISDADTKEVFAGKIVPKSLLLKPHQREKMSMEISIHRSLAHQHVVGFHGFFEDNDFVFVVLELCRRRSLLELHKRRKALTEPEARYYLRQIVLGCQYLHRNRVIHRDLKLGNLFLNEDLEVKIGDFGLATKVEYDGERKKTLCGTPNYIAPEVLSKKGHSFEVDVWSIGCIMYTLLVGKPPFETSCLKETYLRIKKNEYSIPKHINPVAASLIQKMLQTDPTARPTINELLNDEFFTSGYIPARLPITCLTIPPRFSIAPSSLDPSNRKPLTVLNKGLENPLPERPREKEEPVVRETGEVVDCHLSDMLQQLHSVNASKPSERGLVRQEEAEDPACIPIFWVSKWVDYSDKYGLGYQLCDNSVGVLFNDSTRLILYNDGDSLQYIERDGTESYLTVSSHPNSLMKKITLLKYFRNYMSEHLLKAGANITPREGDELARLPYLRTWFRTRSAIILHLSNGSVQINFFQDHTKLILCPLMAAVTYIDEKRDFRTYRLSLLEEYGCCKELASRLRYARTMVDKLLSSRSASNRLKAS

Among all 360,000 compounds or so, about 10,000 (2.8%) were called active. Inconclusive means that the source gave no clear call. Such entries were picked first, then a sample of the others. Calls follow the shape of the dose curve; as a rule, active = well fitted inhibition curve with a large enough effect; inconclusive = small, poorly fitted or top-dose-only effect; inactive = flat fitted curve, though single readings scatter. Where the call is inconclusive, the potency comes from a doubtful curve fit.
Each molecule was assayed against Serine/threonine-protein kinase PLK1 (Homo sapiens) (UniProt P53350) (assay: qHTS for Inhibitors of PLK1-PDB (polo-like kinase 1 - polo-box domain): Primary Screen). Settings: Plk1 PBD binding of FITC phosphopeptide, fluorescence polarization.
In the case of `CN(C(=O)CC1C(=O)NCCN1Cc1c(F)cccc1Cl)C1CCOCC1` (stereo not drawn), the max response, negative = inhibition is reported as inactive: -27.1%.
With `COc1ccc([C@@H]2CC=C(C(=O)O)[C@H](c3ccc(Cl)cc3)N2S(=O)(=O)c2ccc(Cl)cc2)cc1` the max response, negative = inhibition was inconclusive: -35.9% [inhibitor].
In the case of `Cc1sc2nc(-c3cccnc3)nc(Cl)c2c1-c1ccccc1`, the Potency is reported as inconclusive: 29.9 µM [inhibitor, partial curve].
For `Oc1ccc2c(c1)c1c3n2CCNC3CCC1` (stereo not drawn), the max response, negative = inhibition was inactive: -4.02%.
For `O=C(NCCc1ccccc1)c1nc2c(nnn2Cc2ccccc2Cl)c(=O)[nH]1`, the Potency was inconclusive: 23.8 µM [inhibitor, single point].
For `CCCS(=O)(=O)Nc1ccc(N2CCCCC2)c(S(=O)(=O)Nc2ccccc2OC)c1`, the Potency was active: 23.8 µM.
For `COCCNC(=O)c1ccccc1NC(=O)c1ccccc1SC`, the max response, negative = inhibition was inactive: -4.41%.
With `C#CCN(C(=O)C1CCC(=O)N(CCc2cccc(F)c2)C1)C1CCCCC1` (stereo not drawn) the max response, negative = inhibition was inactive: -4.69%.
In the case of `Cc1ccc(C(=O)NCCSc2ccc(Cl)cc2)cc1[N+](=O)[O-]`, the Potency is reported as inconclusive: 23.8 µM [inhibitor, partial curve].
`Cc1cc(C)n2c(SCc3ccc(Cl)cc3Cl)nnc2n1` was tested, and the max response, negative = inhibition was inactive: -8.05%.
`O=C(O)CNC(=S)N(Cc1ccccc1F)C1CCCCC1` was tested, and the max response, negative = inhibition was inactive: 3.2%.
For `CN1CCc2c(sc(N)c2C(=O)O)C1`, the Potency was inconclusive: 26.7 µM [inhibitor, partial curve].
For `Cc1ccc(CN(Cc2ccco2)C(=S)NCC(=O)NCc2cccnc2)cc1`, the Potency was inconclusive: 37.7 µM [inhibitor, single point].
For `Cc1c(C(=O)NNC(=O)c2ccccc2O)oc2ccccc12`, the max response, negative = inhibition was inactive: -4.96%.
`CS(=O)(=O)c1cccc(C(=O)NCc2ccccc2)c1` was tested, and the Potency was inconclusive: 26.7 µM [inhibitor, partial curve].
`CC(Sc1ccccn1)C(=O)Nc1ccccc1` (stereo not drawn) was tested, and the Potency was active: 23.8 µM.
`O=C(CSc1nc2ccccc2c(=O)[nH]1)N1CCCCCC1` was tested, and the Potency was inconclusive: 26.7 µM [inhibitor, partial curve].
`CCN(CCn1cccn1)Cc1c(C(=O)N2CCCCCCC2)nc2ccc(Cl)cn12` was tested, and the max response, negative = inhibition was inactive: -13.9%.
In the case of `CCOC(=O)CSc1ccccn1`, the Potency is reported as inconclusive: 16.8 µM [inhibitor, partial curve].
In the case of `O=C(O)C(O)c1ccco1` (stereo not drawn), the Potency is reported as active: 26.7 µM.
For `COc1ccccc1CNS(=O)(=O)N(C)C`, the Potency was active: 21.2 µM.
For `C/C(=N\NS(=O)(=O)c1ccc(Cl)c([N+](=O)[O-])c1)c1cc2ccccc2o1`, the Potency was inconclusive: 26.7 µM [inhibitor, single point].
With `COC(=O)c1ccc(C(=O)OC)c(NC(=O)COc2ccccc2OC)c1` the Potency was inconclusive: 21.2 µM [inhibitor, single point].
`N#Cc1c(/N=C/c2ccc(-c3ccc(C(=O)O)c(Cl)c3)o2)sc2c1CCCC2` was tested, and the Potency was inconclusive: 26.7 µM [inhibitor, single point].
`CC(C)c1ccccc1NC(=O)C1C2C=CC(C2)C1C(=O)O` (stereo not drawn) was tested, and the max response, negative = inhibition was inactive: -3.89%.
In the case of `O=C(O)CCCCCNC(=O)C(=O)C1C(=O)Nc2ccccc21` (stereo not drawn), the Potency is reported as inconclusive: 21.2 µM [inhibitor, partial curve].
With `CCN=c1scc(C)n1/N=C/c1ccc(O)c(O)c1O` the Potency was active: 6.7 µM.
`NNC(=O)c1ccc2c(c1)S(=O)(=O)NNC2=O` was tested, and the Potency was inconclusive: 18.9 µM [inhibitor, partial curve].
`S=c1nc[nH]c2c1ncn2C1CCCO1` (stereo not drawn) was tested, and the Potency was active: 26.7 µM.
For `N#C/C(=C\c1ccc(OCc2ccc(Cl)cc2)cc1)C(=O)Nc1cccc(C(=O)O)c1`, the Potency was inconclusive: 10.6 µM [inhibitor, partial curve].
In the case of `CCOc1ccc2cc(S(=O)(=O)N3CCOCC3)ccc2c1`, the Potency is reported as inconclusive: 26.7 µM [inhibitor, single point].
In the case of `CC(=O)Nc1cc(-c2ccc(CO)cc2)cn2c(-c3ccc(F)cc3)cnc12`, the Potency is reported as inconclusive: 33.6 µM [inhibitor, partial curve].
In the case of `Oc1c(Br)cc(/C=N/n2c(-c3ccccc3)n[nH]c2=S)c(O)c1Br`, the Potency is reported as active: 6.7 µM.
With `O=C(COc1ccc(F)cc1)Nc1nc(-c2ccccn2)cs1` the Potency was inconclusive: 33.6 µM [inhibitor, partial curve].
With `Cc1ccc(/C=C/C(=O)O)cc1S(=O)(=O)NCCCC(=O)O` the Potency was inconclusive: 21.2 µM [inhibitor, single point].
In the case of `CCOC(=O)c1cccc(NC(=O)C2CCCN(S(=O)(=O)c3c(C)n[nH]c3C)C2)c1` (stereo not drawn), the max response, negative = inhibition is reported as inactive: -2.42%.
`O=c1[nH]c(=O)c2[nH]c(=S)[nH]c2[nH]1` was tested, and the Potency was active: 8.44 µM.
For `C[C@@H]1CN([C@@H](C)CO)C(=O)CCCn2nncc2CO[C@H]1CN(C)Cc1ccc(C(F)(F)F)cc1`, the max response, negative = inhibition was inactive: -1.98%.
In the case of `CCOc1cccc2sc(NN)nc12`, the Potency is reported as inconclusive: 26.7 µM [inhibitor, single point].
For `Cc1ccc(C2C(C(=O)c3cccs3)=C(O)C(=O)N2c2nnc(C)s2)cc1` (stereo not drawn), the Potency was inconclusive: 23.8 µM [inhibitor, partial curve].
`Cc1ccc2cc(/C=N/NC(=O)c3ccccc3O)c(Cl)nc2c1` was tested, and the max response, negative = inhibition was inactive: -23.9%.
With `COCC(C)NC(=O)CCS(=O)(=O)c1nc(-c2ccc(OC)cc2)cc(C(F)(F)F)n1` (stereo not drawn) the Potency was inconclusive: 23.8 µM [inhibitor, partial curve].
With `Cc1ccc(N2CCN(CC(O)COc3ccc([N+](=O)[O-])cc3)CC2)cc1` (stereo not drawn) the max response, negative = inhibition was inactive: -0.581%.
For `Nc1nnc(CCS(=O)(=O)c2cc(Cl)ccc2Cl)s1`, the Potency was inconclusive: 26.7 µM [inhibitor, single point].
In the case of `COc1cccc(OCCCCSc2ncccn2)c1`, the Potency is reported as inconclusive: 26.7 µM [inhibitor, partial curve].
In the case of `Cc1nc(SCC(=O)Nc2cc(C(N)=O)cc(C(N)=O)c2)c2c(C)c(C)sc2n1`, the max response, negative = inhibition is reported as inconclusive: -30% [inhibitor].
With `O=C(CCC1CCCN(Cc2cccc3c2OCO3)C1)NCc1ccc(F)c(F)c1` (stereo not drawn) the max response, negative = inhibition was inactive: 5.94%.
For `CCOC(=O)c1c(C2COc3ccccc3O2)csc1NC(=O)c1ccco1` (stereo not drawn), the Potency was active: 2.51 µM.
% is scaled to controls: 0 for no effect and ±100 for the full control effect; potency is read from the fitted curve at half-maximal effect.
Also: nearly all actives have a fitted effect of over 65% in size.
For max response, negative = inhibition in this document: series mostly up to about 57 µM.
